Results published in US9018258B2, “Substituted 1-benzylcycloalkylcarboxylic acids and the use thereof” (Bayer Intellectual Property GmbH, priority 2010, dated 2015).
For some assays here: For at least one compound, name, drawing or mass did not settle the structure. Some results were stated once for a whole list of compounds, not compound by compound.

Chains of the proteins cited; added tags and fusions are not shown. Lines headed by an entry give the natural chain unless they say otherwise; changes in a name come on top.
UniProt P20595: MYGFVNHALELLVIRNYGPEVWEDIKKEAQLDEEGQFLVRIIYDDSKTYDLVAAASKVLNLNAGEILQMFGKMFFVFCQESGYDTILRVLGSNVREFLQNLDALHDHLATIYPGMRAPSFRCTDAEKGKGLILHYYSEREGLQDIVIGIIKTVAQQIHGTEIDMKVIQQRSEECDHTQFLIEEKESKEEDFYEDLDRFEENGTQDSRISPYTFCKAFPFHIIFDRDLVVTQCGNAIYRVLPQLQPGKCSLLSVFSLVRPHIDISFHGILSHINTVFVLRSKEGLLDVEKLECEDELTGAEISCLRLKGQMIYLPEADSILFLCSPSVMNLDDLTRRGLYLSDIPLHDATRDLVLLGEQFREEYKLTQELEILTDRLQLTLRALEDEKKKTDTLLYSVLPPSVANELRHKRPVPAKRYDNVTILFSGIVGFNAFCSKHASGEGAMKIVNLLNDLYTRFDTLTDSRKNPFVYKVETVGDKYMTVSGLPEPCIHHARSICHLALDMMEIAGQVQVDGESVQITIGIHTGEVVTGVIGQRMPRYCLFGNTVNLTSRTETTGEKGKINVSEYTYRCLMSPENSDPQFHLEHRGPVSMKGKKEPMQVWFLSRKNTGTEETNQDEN

How the values were obtained:
[1] = molecular target: T1, sGC (Rattus norvegicus, UniProt P20595); test: Action at a recombinant guanylate cyclase reporter cell line (CHO reporter cell); type: cell-based; details: CHO reporter cell in vitro; for MEC (minimum effective concentration), CHO reporter cell, comparison compounds: prior-art comparison
T1 construct: expressed in transfected cells; host or cells: CHO reporter cell
Procedure: The cellular action of the compounds according to the invention is determined at a recombinant guanylate cyclase reporter cell line, as described in F. Wunder et al., Anal. Biochem. 339, 104-112 (2005).

[2] = molecular target: T2, soluble guanylate cyclase (sGC) (Rattus norvegicus, UniProt P20595); test: Stimulation of sGC enzyme activity (PPi detection, luciferase); type: biochemical; details: sGC enzyme in vitro; prior-art comparison
T2 construct: made in house; host or cells: Sf9 insect cells (baculovirus)
Procedure: Soluble guanylate cyclase (sGC) converts on stimulation GTP into cGMP and pyrophosphate (PPi). PPi is detected with the aid of the assay described below. The signal produced in the assay increases as the reaction progresses and serves as a measure of the sGC enzyme activity under the given stimulation.
To carry out the assay, 29 μl of enzyme solution [0-10 nM soluble guanylate cyclase (prepared according to Honicka et al., J. Mol. Med. 77, 14-23 (1999)) in 50 mM TEA, 2 mM MgCl2, 0.1% BSA (fraction V), 0.005% Brij®, pH 7.5] are initially introduced into a microplate, and 1 μl of the substance to be tested (as a serially diluted solution in DMSO) is added. The mixture is incubated at room temperature for 10 min. […] The enzyme reaction is started by adding 20 μl of substrate solution [1.25 mM guanosine 5′-triphosphate (Sigma) in 50 mM TEA, 2 mM MgCl2, 0.1% BSA (fraction V), 0.005% Brij®, pH 7.5] and measured continuously in a luminometer. The extent of the stimulation by the substance to be tested can be determined relative to the signal of the unstimulated reaction. […]

Row | SMILES | MEC (minimum effective concentration), sGC-activating activity in the CHO reporter cell [1] [nM] | MEC (minimum effective concentration), sGC enzyme, comparison compounds [2] [µM] | MEC (minimum effective concentration), CHO reporter cell, comparison compounds [1] [µM]
1 | CC(=O)c1ccc([C@@H](C(=O)Nc2cc(CC3(C(=O)O)CC3)ccc2F)[C@@H](C)C(F)(F)F)cc1 [Example 64, (+)-1-(3-{[(2S,3R)-2-(4-Acetylphenyl)-4,4,4-trifluoro-3-methylbutanoyl]amino}-4-fluorobenzyl)-cyclopropanecarboxylic acid] | 200 | – | –
2 | CCCOc1ccc(C(=O)NCc2cc(CC3(C(=O)O)CCCO3)ccc2OCC)c(Cl)c1 (centres unmarked) [Example 73 of EP 1 452 521-A1, 2-(3-{[(2-chloro-4-propoxybenzoyl)amino]-methyl}-4-ethoxybenzyl)tetrahydrofuran-2-carboxylic acid, reference compound] | – | > 10 | > 10
3 | COc1ccc(CC2(C(=O)O)CC2)cc1CNC(=O)c1ccc(Cl)cc1Cl [Example 11 of EP 1 452 521-A1, 1-(3-{[(2,4-dichlorobenzoyl)amino]methyl}-4-methoxybenzyl)cyclopropanecarboxylic acid, reference compound] | – | > 10 | > 10
